Data reported in the supplement of paper PMC4862054.
Most entries show no effect beyond the scatter of the controls.

Assays:
Assay in all cases: normalised response (% of control), CellTox Green; higher = less cell death (100 = DMSO, 0 = benzethonium chloride kill control)
Conditions in all cases: incubation time: 72 h
BT-474 = tested on: BT-474
Description: (§1)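 DSRT, 72 h incubation, CellTox Green / CellTiter-Glo readout. Signal is normalised to DMSO and benzethonium chloride controls. Value is the normalised response at the lowest tested concentration.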

BT-549 = tested on: BT-549
Description: as §1

CAL-120 = tested on: CAL-120
Description: as §1

CAL-148 = tested on: CAL-148
Description: as §1

CAL-51 = tested on: CAL-51
Description: as §1

CAL-85-1 = tested on: CAL-85-1
Description: as §1

DU-4475 = tested on: DU-4475
Description: as §1

HCC1143 = tested on: HCC1143
Description: as §1

HCC1599 = tested on: HCC1599
Description: as §1

HCC1937 = tested on: HCC1937
Description: as §1

HDQ-P1 = tested on: HDQ-P1
Description: as §1

Hs578T = tested on: Hs578T
Description: as §1

MCF-10A = tested on: MCF-10A
Description: as §1

MDA-MB-231 = tested on: MDA-MB-231
Description: as §1

MDA-MB-436 = tested on: MDA-MB-436
Description: as §1

MDA-MB-453 = tested on: MDA-MB-453
Description: as §1

MDA-MB-468 = tested on: MDA-MB-468
Description: as §1

MFM-223 = tested on: MFM-223
Description: as §1

Structure (SMILES) | normalised response (BT-474) | normalised response (BT-549) | normalised response (CAL-120) | normalised response (CAL-148) | normalised response (CAL-51) | normalised response (CAL-85-1) | normalised response (DU-4475) | normalised response (HCC1143) | normalised response (HCC1599) | normalised response (HCC1937) | normalised response (HDQ-P1) | normalised response (Hs578T) | normalised response (MCF-10A) | normalised response (MDA-MB-231) | normalised response (MDA-MB-436) | normalised response (MDA-MB-453) | normalised response (MDA-MB-468) | normalised response (MFM-223)
N.N.[Cl][Pt][Cl] [Cisplatin] (0.1 nM) | 98.2% | 105% | 102% | 98.9% | 117% | 95.3% | 114% | 83.4% | 114% | 116% | 105% | 91.5% | 110% | 131% | 86% | 104% | 99.8% | 104%
CC[C@]1(O)C[C@H]2CN(CCc3c([nH]c4ccccc34)[C@@](C(=O)OC)(c3cc4c(cc3OC)N(C=O)[C@H]3[C@@](O)(C(=O)OC)[C@H](OC(C)=O)[C@]5(CC)C=CCN6CC[C@]43[C@@H]65)C2)C1 [Vincristine] (0.1 nM) | 99.7% | 99.2% | 99.9% | 100% | 75.2% | 108% | 103% | 109% | 101% | 76% | 90.9% | 110% |  | 103% | 74.1% | 105% | 103% | 103%
C#Cc1cccc(Nc2ncnc3cc(OCCOC)c(OCCOC)cc23)c1 [Erlotinib] (1 nM) | 100% | 61.5% | 102% | 82.9% | 112% | 103% | 107% | 116% | 110% | 115% | 99.4% | 80.3% | 103% | 107% | 88.5% | 107% | 84.2% | 102%
N[C@@H](CSC(c1ccccc1)(c1ccccc1)c1ccccc1)C(=O)O [S-trityl-L-cysteine] (4 nM) | 98.5% | 99.4% | 102% | 103% | 105% | 92.4% | 98.9% | 97.5% | 97.6% | 88.9% | 86% | 72.2% | 51.3% | 97.3% | 106% | 105% | 104% | 94.4%
CCN(CC)CCCC(C)Nc1ccnc2cc(Cl)ccc12 (stereo not drawn) [Chloroquine] (10 nM) | 96.3% | 91.6% | 102% | 104% | 114% | 105% | 113% | 84.7% | 118% | 119% | 98.1% |  | 109% | 118% | 94.6% | 106% | 54.6% | 104%
